Laboratory results from US20010053777A1, “Drug treatment for restless leg syndrome” (priority 1999, published 2001).
For at least one compound, name, drawing or mass did not settle the structure.

Tested on: patients with RLS
Test: Treatment of 2 patients with RLS: therapeutic history, monotherapy trials and combination therapy
Assay type: in vivo, human
Settings: 2 RLS patients, previous therapy
Protocol: 2 patients with RLS (person and person) were treated with a combination therapy of pramipexole and clonidine.
The clonidine was also initially prescribed in a single dose of 0.075 mg two hours before bedtime and increased by 0.075 mg at intervals of 3 days.
2. Treatment with a combination therapy of clonidine and pramipexole After slowly bringing the clonidine therapy to a complete halt and after a treatment-free period of about 1 week, both patients were treated with a combination of 0.088 mg of pramipexole and 0.075 mg of clonidine. […] After 7 days the dosage of pramipexole had been increased to 0.18 mg and the dosage of clonidine to 0.15 mg, two hours before going to nd sleep.

For O=C1Nc2ccc(Cl)cc2C(c2ccccc2)=NC1O (stereo not shown) [oxazepam], the “falling asleep and sleeping through” value was “improved”.
